PubChem BioAssay AID493246 | Drosophila RNAi Screening Center, 2011
In all, the deposit lists about 21,000 reagents; shown is a random part of those that have a named target and a result. Of all reagents, 429 (2%) are marked active. 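Values are raw and not normalised between plates; calls rest on per-plate z-scores that were not deposited.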 Reagents against one gene are numbered here. Not stated in the record: the amount of reagent, the time to read-out.

Test: 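Identify essential fly genes by loss of cell viability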 (primary screen)
Cell system: Drosophila Kc and S2R+ cells
Reagent: long dsRNA against Drosophila genes
Read-out: 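Cell number per well after knock-down, printed as raw plate values; calls were based on per-plate z-scores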
Direction: Kc cell number and S2R+ cell number: higher = more cells remaining
Hit rule: 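Counted as a hit if cell number falls by a z-score of at least 3 within its plate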

dec (defective chorion) — Kc cell number, rep 1: 1.68e6; Kc cell number, rep 2: 1.67e6; S2R+ cell number, rep 1: 1.14e6; S2R+ cell number, rep 2: 1.26e6; activity call: inactive
speck — Kc cell number, rep 1: 1.31e6; Kc cell number, rep 2: 1.35e6; S2R+ cell number, rep 1: 1.09e6; S2R+ cell number, rep 2: 1.21e6; activity call: inactive
Sr-CIV (Scavenger receptor class C, type IV) — Kc cell number, rep 1: 1.54e6; Kc cell number, rep 2: 1.46e6; S2R+ cell number, rep 1: 1.13e6; S2R+ cell number, rep 2: 1.26e6; activity call: inactive
CG5023 — Kc cell number, rep 1: 1.47e6; Kc cell number, rep 2: 1.60e6; S2R+ cell number, rep 1: 9.53e5; S2R+ cell number, rep 2: 1.02e6; activity call: inactive
asp (abnormal spindle) — Kc cell number, rep 1: 1.58e6; Kc cell number, rep 2: 1.79e6; S2R+ cell number, rep 1: 1.19e6; S2R+ cell number, rep 2: 1.32e6; activity call: inactive
shg (shotgun) — Kc cell number, rep 1: 1.43e6; Kc cell number, rep 2: 1.52e6; S2R+ cell number, rep 1: 1.12e6; S2R+ cell number, rep 2: 1.20e6; activity call: inactive
Spn28F (Serpin 28F) — Kc cell number, rep 1: 1.44e6; Kc cell number, rep 2: 1.54e6; S2R+ cell number, rep 1: 1.23e6; S2R+ cell number, rep 2: 1.35e6; activity call: inactive
DNAlig1 (DNA ligase 1) — Kc cell number, rep 1: 1.18e6; Kc cell number, rep 2: 1.30e6; S2R+ cell number, rep 1: 9.19e5; S2R+ cell number, rep 2: 9.27e5; activity call: inactive
Cpr72Ea (Cuticular protein 72Ea) — Kc cell number, rep 1: 1.62e6; Kc cell number, rep 2: 1.62e6; S2R+ cell number, rep 1: 1.32e6; S2R+ cell number, rep 2: 1.41e6; activity call: inactive
Clp (Clipper) — Kc cell number, rep 1: 1.40e6; Kc cell number, rep 2: 1.45e6; S2R+ cell number, rep 1: 9.83e5; S2R+ cell number, rep 2: 1.14e6; activity call: inactive
THADA — Kc cell number, rep 1: 1.55e6; Kc cell number, rep 2: 1.59e6; S2R+ cell number, rep 1: 1.07e6; S2R+ cell number, rep 2: 1.22e6; activity call: inactive

The list goes on; the last 3 above are carried over.
Cpr72Ea (Cuticular protein 72Ea) — Kc cell number, rep 1: 1.62e6; Kc cell number, rep 2: 1.62e6; S2R+ cell number, rep 1: 1.32e6; S2R+ cell number, rep 2: 1.41e6; activity call: inactive
Clp (Clipper) — Kc cell number, rep 1: 1.40e6; Kc cell number, rep 2: 1.45e6; S2R+ cell number, rep 1: 9.83e5; S2R+ cell number, rep 2: 1.14e6; activity call: inactive
THADA — Kc cell number, rep 1: 1.55e6; Kc cell number, rep 2: 1.59e6; S2R+ cell number, rep 1: 1.07e6; S2R+ cell number, rep 2: 1.22e6; activity call: inactive
veil — Kc cell number, rep 1: 1.40e6; Kc cell number, rep 2: 1.46e6; S2R+ cell number, rep 1: 1.12e6; S2R+ cell number, rep 2: 1.14e6; activity call: inactive
Cpsf6 (Cleavage and polyadenylation specific factor 6) — Kc cell number, rep 1: 1.07e6; Kc cell number, rep 2: 1.13e6; S2R+ cell number, rep 1: 1.09e6; S2R+ cell number, rep 2: 1.03e6; activity call: inactive
CG7408 — Kc cell number, rep 1: 1.30e6; Kc cell number, rep 2: 1.46e6; S2R+ cell number, rep 1: 1.38e6; S2R+ cell number, rep 2: 1.45e6; activity call: inactive
CG31156 #1 — Kc cell number, rep 1: 1.59e6; Kc cell number, rep 2: 1.62e6; S2R+ cell number, rep 1: 1.17e6; S2R+ cell number, rep 2: 1.21e6; activity call: inactive
CG31156 #2 — Kc cell number, rep 1: 1.64e6; Kc cell number, rep 2: 1.67e6; S2R+ cell number, rep 1: 9.60e5; S2R+ cell number, rep 2: 1.15e6; activity call: inactive
CG6244 — Kc cell number, rep 1: 1.40e6; Kc cell number, rep 2: 1.56e6; S2R+ cell number, rep 1: 1.22e6; S2R+ cell number, rep 2: 1.33e6; activity call: inactive
Nep3 (Neprilysin 3) — Kc cell number, rep 1: 1.45e6; Kc cell number, rep 2: 1.46e6; S2R+ cell number, rep 1: 1.07e6; S2R+ cell number, rep 2: 1.07e6; activity call: inactive
Vps36 (Vacuolar protein sorting 36) — Kc cell number, rep 1: 1.29e6; Kc cell number, rep 2: 1.35e6; S2R+ cell number, rep 1: 1.30e6; S2R+ cell number, rep 2: 1.40e6; activity call: inactive
CR16735 (pseudo) — Kc cell number, rep 1: 1.68e6; Kc cell number, rep 2: 2.00e6; S2R+ cell number, rep 1: 1.32e6; S2R+ cell number, rep 2: 1.51e6; activity call: inactive
Kaz-m1 (Kazal-type protease inhibitor m1) — Kc cell number, rep 1: 1.71e6; Kc cell number, rep 2: 1.68e6; S2R+ cell number, rep 1: 1.09e6; S2R+ cell number, rep 2: 1.15e6; activity call: inactive
